Source: article PMC9061724
Results are given in words; binding and its absence hold for the method and conditions named. Binding seen in cells or lysates may run through a third protein. Some results given as binding are weak or reduced against the parent protein; the word gives no strength.

Chains of the proteins cited; added tags and fusions are not shown. Lines headed by an entry give the natural chain unless they say otherwise; changes in a name come on top.
UniProt Q14160: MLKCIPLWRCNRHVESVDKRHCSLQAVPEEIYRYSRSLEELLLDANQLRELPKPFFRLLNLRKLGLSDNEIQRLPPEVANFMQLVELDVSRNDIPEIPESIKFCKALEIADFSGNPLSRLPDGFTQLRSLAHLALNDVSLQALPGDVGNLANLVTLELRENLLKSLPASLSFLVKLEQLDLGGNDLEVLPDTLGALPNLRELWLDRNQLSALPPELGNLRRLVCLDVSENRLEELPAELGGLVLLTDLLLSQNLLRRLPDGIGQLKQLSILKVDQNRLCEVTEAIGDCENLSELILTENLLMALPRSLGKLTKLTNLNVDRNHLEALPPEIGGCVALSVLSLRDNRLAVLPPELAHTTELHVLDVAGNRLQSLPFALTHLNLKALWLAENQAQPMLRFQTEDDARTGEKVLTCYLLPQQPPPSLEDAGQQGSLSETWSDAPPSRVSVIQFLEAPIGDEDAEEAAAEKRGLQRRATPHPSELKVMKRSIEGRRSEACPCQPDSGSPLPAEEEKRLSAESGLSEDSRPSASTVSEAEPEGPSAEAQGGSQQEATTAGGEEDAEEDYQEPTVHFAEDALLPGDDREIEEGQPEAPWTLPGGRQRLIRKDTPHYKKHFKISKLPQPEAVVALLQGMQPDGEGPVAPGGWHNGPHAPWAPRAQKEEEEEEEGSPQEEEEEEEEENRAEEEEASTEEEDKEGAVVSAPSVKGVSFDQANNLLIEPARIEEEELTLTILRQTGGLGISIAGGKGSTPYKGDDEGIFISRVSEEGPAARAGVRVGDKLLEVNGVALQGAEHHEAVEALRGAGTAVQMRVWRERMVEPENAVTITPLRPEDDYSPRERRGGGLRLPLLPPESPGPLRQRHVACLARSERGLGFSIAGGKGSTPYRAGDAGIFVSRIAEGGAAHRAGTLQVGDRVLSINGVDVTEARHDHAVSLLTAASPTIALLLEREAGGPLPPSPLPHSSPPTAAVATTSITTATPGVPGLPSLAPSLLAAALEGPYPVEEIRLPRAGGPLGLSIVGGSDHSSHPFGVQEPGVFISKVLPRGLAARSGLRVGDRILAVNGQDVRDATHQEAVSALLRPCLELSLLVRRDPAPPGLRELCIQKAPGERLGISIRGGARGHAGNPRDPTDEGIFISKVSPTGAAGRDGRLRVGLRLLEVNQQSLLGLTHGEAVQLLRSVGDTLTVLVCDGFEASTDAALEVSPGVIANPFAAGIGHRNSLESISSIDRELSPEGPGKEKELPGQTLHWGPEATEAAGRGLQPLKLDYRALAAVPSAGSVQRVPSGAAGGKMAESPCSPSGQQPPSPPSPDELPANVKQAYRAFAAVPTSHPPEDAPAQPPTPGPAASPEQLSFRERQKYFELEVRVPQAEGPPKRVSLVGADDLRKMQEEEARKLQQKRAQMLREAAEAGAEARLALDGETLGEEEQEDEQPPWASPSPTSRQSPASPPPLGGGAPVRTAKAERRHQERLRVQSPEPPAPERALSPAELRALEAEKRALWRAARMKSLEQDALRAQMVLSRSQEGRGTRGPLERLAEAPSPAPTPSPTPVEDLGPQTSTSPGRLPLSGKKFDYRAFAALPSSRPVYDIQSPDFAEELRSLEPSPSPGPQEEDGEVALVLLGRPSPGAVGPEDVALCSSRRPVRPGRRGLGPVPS
UniProt Q01650: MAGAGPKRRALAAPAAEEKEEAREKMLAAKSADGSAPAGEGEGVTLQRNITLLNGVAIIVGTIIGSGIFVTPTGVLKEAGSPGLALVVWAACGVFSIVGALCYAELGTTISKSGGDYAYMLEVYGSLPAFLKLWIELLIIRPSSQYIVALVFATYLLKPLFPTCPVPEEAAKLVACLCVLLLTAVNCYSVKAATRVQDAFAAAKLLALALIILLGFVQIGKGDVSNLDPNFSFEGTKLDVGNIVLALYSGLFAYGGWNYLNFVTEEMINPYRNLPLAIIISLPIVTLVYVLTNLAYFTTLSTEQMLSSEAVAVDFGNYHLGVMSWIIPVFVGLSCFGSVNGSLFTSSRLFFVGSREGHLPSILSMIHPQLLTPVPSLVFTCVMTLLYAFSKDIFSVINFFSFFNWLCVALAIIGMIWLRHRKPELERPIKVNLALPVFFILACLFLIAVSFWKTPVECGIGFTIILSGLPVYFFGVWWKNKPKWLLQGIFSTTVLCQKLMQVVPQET

Assays:
[1] = molecular target: SLC3A2 (human (endogenous in MCF-7)) (UniProt P08195); assay: co-IP; endogenous proteins, MCF-7 lysate (1% Brij-35, 100 mM NaCl, pH 7.4), anti-SLC3A2 antibody, Protein G beads, western blot
[2] = molecular target: HA-SCRIB (wild type), in HEK293T (UniProt Q14160); assay: co-IP; HEK293T transfected with indicated vectors, 48 h, anti-HA antibody, Protein G beads, western blot
SCRIB-P305L, in HEK293T = SCRIB-P305L, in HEK293T (UniProt Q14160); assay: as above
[3] = molecular target: SCRIB-P305L expressed in MCF-7 cells (UniProt Q14160); assay: co-IP; wild-type and P305L SCRIB expressed in MCF-7 cells, immunoprecipitation of SCRIB, western blot
[4] = molecular target: wild-type SCRIB expressed in MCF-7 cells (UniProt Q14160); assay: as above
[5] = molecular target: SLC7A5 (human (endogenous in MCF-7)) (UniProt Q01650); assay: co-IP; endogenous proteins, MCF-7 lysate (parental and SLC3A2-knockdown cells), anti-SLC7A5 antibody, Protein G beads, western blot

Molecule: SCRIB (from UniProt Q14160 1-1655)
- binding [1]: binds

Molecule: wild-type SLC3A2, in HEK293T (from UniProt P08195 1-529)
- binding [2]: binds
- binding (SCRIB-P305L, in HEK293T): binds

Molecule: SLC3A2 (from UniProt P08195 1-529)
- binding [3]: binds
- binding [4]: binds
- binding [5]: binds

B1: LLGL2 (protein, UniProt Q6P1M3 1-1020)
chain: MRRFLRPGHDPVRERLKRDLFQFNKTVEHGFPHQPSALGYSPSLRILAIGTRSGAIKLYGAPGVEFMGLHQENNAVTQIHLLPGQCQLVTLLDDNSLHLWSLKVKGGASELQEDESFTLRGPPGAAPSATQITVVLPHSSCELLYLGTESGNVFVVQLPAFRALEDRTISSDAVLQRLPEEARHRRVFEMVEALQEHPRDPNQILIGYSRGLVVIWDLQGSRVLYHFLSSQQLENIWWQRDGRLLVSCHSDGSYCQWPVSSEAQQPEPLRSLVPYGPFPCKAITRILWLTTRQGLPFTIFQGGMPRASYGDRHCISVIHDGQQTAFDFTSRVIGFTVLTEADPAATFDDPYALVVLAEEELVVIDLQTAGWPPVQLPYLASLHCSAITCSHHVSNIPLKLWERIIAAGSRQNAHFSTMEWPIDGGTSLTPAPPQRDLLLTGHEDGTVRFWDASGVCLRLLYKLSTVRVFLTDTDPNENFSAQGEDEWPPLRKVGSFDPYSDDPRLGIQKIFLCKYSGYLAVAGTAGQVLVLELNDEAAEQAVEQVEADLLQDQEGYRWKGHERLAARSGPVRFEPGFQPFVLVQCQPPAVVTSLALHSEWRLVAFGTSHGFGLFDHQQRRQVFVKCTLHPSDQLALEGPLSRVKSLKKSLRQSFRRMRRSRVSSRKRHPAGPPGEAQEGSAKAERPGLQNMELAPVQRKIEARSAEDSFTGFVRTLYFADTYLKDSSRHCPSLWAGTNGGTIYAFSLRVPPAERRMDEPVRAEQAKEIQLMHRAPVVGILVLDGHSVPLPEPLEVAHDLSKSPDMQGSHQLLVVSEEQFKVFTLPKVSAKLKLKLTALEGSRVRRVSVAHFGSRRAEDYGEHHLAVLTNLGDIQVVSLPLLKPQVRYSCIRREDVSGIASCVFTKYGQGFYLISPSEFERFSLSTKWLVEPRCLVDSAETKNHRPGNGAGPKKAPSRARNSGTQSDGEEKQPGLVMERALLSDERVLKEIQSTLEGDRGSGNWRSHRAAVGCSLSNGGAE
- binding [5]: binds
